One test has as its target PBP1B (Escherichia coli) (UniProt P02919). As to the kind of experiment: FRET or BRET; in cell FRET assay with the fluorescent labeled proteins (Alexeeva et al., 2010); details in the Supplementary information. On the technique in general: Bioluminescence resonance energy transfer reports proximity on the nanometre scale.
The target of another test is T1, PBP1A (Escherichia coli) (UniProt P02918).
T1 sequence: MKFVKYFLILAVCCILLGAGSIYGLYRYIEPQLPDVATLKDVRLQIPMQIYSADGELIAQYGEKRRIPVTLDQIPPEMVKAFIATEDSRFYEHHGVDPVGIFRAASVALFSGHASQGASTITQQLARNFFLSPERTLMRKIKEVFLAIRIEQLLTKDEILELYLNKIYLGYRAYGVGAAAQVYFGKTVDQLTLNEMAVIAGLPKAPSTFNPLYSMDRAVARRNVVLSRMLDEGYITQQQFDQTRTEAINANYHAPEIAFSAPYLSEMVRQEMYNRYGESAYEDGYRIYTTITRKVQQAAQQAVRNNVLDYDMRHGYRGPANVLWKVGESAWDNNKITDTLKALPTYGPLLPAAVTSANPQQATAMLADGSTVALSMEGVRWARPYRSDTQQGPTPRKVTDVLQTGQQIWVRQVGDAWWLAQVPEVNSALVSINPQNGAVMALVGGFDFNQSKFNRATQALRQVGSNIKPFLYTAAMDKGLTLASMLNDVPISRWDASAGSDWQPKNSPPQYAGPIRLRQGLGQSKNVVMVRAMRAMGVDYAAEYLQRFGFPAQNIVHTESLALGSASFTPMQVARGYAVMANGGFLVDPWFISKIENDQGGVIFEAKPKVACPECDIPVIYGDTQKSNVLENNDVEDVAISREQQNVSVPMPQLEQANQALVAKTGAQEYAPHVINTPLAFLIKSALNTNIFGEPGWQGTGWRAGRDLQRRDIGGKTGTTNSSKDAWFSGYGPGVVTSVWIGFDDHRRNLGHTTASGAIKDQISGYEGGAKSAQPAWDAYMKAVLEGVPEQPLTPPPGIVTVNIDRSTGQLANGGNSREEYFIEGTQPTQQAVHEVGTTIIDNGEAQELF
The test is described as above.

Results are given in words; binding and its absence hold for the method and conditions named. Binding seen in cells or lysates may run through a third protein.

B1: PBP1B (enzyme, UniProt P02919 1-844)
chain: MAGNDREPIGRKGKPTRPVKQKVSRRRYEDDDDYDDYDDYEDEEPMPRKGKGKGKGRKPRGKRGWLWLLLKLAIVFAVLIAIYGVYLDQKIRSRIDGKVWQLPAAVYGRMVNLEPDMTISKNEMVKLLEATQYRQVSKMTRPGEFTVQANSIEMIRRPFDFPDSKEGQVRARLTFDGDHLATIVNMENNRQFGFFRLDPRLITMISSPNGEQRLFVPRSGFPDLLVDTLLATEDRHFYEHDGISLYSIGRAVLANLTAGRTVQGASTLTQQLVKNLFLSSERSYWRKANEAYMALIMDARYSKDRILELYMNEVYLGQSGDNEIRGFPLASLYYFGRPVEELSLDQQALLVGMVKGASIYNPWRNPKLALERRNLVLRLLQQQQIIDQELYDMLSARPLGVQPRGGVISPQPAFMQLVRQELQAKLGDKVKDLSGVKIFTTFDSVAQDAAEKAAVEGIPALKKQRKLSDLETAIVVVDRFSGEVRAMVGGSEPQFAGYNRAMQARRSIGSLAKPATYLTALSQPKIYRLNTWIADAPIALRQPNGQVWSPQNDDRRYSESGRVMLVDALTRSMNVPTVNLGMALGLPAVTETWIKLGVPKDQLHPVPAMLLGALNLTPIEVAQAFQTIASGGNRAPLSALRSVIAEDGKVLYQSFPQAERAVPAQAAYLTLWTMQQVVQRGTGRQLGAKYPNLHLAGKTGTTNNNVDTWFAGIDGSTVTITWVGRDNNQPTKLYGASGAMSIYQRYLANQTPTPLNLVPPEDIADMGVDYDGNFVCSGGMRILPVWTSDPQSLCQQSEMQQQPSGNPFDQSSQPQQQPQQQPAQQEQKDSDGVAGWIKDMFGSN
B1: the binding result with PBP1B (Escherichia coli) and in the test with PBP1A (Escherichia coli) was “no binding” in each case.

B2: PBP1A (enzyme, UniProt P02918 1-850)
chain: T1 sequence
Take B2: the binding result with PBP1A (Escherichia coli) is “no binding”.

(Values after article PMC4462998.)
